Reference: EP0495091B1 (Metabasis Therapeutics Inc., priority 1990, dated 1992)
For at least one compound, name, drawing or mass did not settle the structure.

Test system: coronary endothelial cells
Assay: Inhibition of adenosine utilization in cell culture
Assay type: cell-based
Details: 5 µM test compound, 1 µM [3H] adenosine, 15 minutes
Method: Inhibition of adenosine utilization was determined by measuring the concentration of extracellular adenosine by scintillation counting following separation by thin layer chromatography (TLC).

With `Nc1c(C(=O)NCc2ccc(S(N)(=O)=O)cc2)ncn1[C@@H]1O[C@H](CO)[C@@H](O)[C@H]1O` [Compound No. 75, 5-Amino-1-β-D-ribofuranosylimidazole-4-N-[(4-sulfamoylphenyl)methyl]carboxamide] the “Inhibition of Adenosine Utilization (%)” value was 8 O %.
